Test results published in patent US20220175729A1, “PHARMACEUTICAL USE OF CHLOROPHYLLIDE FOR CANCER THERAPY” (I-SHOU UNIVERSITY, priority 2020, published 2022).

System: MDA-MB-231 breast cancer cells
Assay: Differential gene expression analysis by NGS, MDA-MB-231
Format: cell-based, human
Settings: treated versus untreated MDA-MB-231; FIG. 7

Substance: chlorophyllide
- number of differentially expressed genes: 77
- number of negative regulated genes: 21
- number of positive regulated genes: 56

Some results come without the dose or concentration used.
